From patent US6995243B2, “Antibodies that recognize and bind phosphorylated human glucocorticoid receptor and methods of using same” (New York University, priority 2002, dated 2006)
At least one structure is not confirmed: it was looked up by name or label, or the drawing left a doubt.

Legend:
GR subcellular location = experiment: Cytosolic/nuclear fractionation of U2OS-hGR cells, immunoblot for GR; assay type: cell-based, human; settings: 1 h Dex treatment
[1] = tested on: GR-mediated transcriptional activation; experiment: MMTV-luciferase reporter GR transcriptional activation in U2OS-hGR cells; assay type: cell-based, human; settings: ligand 100 nM, 1 h
GR = biological target: T1, GR (Homo sapiens, UniProt P04150); settings: cited from earlier work
T1 sequence (P04150 1-777): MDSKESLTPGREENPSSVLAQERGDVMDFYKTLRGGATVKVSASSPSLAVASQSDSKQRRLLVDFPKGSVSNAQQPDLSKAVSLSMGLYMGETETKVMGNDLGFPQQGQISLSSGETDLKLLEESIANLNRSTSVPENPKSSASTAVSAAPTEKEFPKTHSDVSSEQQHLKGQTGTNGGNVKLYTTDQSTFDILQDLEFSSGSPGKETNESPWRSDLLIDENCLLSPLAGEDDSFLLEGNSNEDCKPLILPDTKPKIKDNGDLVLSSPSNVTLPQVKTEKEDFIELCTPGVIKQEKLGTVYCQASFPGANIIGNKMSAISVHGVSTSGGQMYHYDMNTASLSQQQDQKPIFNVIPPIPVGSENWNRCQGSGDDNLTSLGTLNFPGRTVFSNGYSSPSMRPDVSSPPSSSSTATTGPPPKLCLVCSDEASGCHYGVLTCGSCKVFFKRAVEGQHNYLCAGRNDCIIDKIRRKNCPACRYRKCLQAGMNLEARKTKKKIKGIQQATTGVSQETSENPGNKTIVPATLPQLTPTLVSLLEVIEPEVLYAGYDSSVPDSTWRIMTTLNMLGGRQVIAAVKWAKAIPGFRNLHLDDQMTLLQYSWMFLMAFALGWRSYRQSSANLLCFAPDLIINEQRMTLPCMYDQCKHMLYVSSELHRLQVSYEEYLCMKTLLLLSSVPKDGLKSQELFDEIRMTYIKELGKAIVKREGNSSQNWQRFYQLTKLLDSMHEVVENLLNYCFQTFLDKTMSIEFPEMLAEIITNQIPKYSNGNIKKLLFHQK

| Compound | Distribution of GR between cytosol and nuclear fractions (GR subcellular location) | GR transcriptional activation (MMTV-luciferase) [1] | Effect on GR reported in the literature (GR) |
| --- | --- | --- | --- |
| C[C@@H]1C[C@H]2[C@@H]3CCC4=CC(=O)C=C[C@]4(C)[C@@]3(F)[C@@H](O)C[C@]2(C)[C@@]1(O)C(=O)CO [Dex, dexamethasone] | distributed equally between cytosol and the nuclear fractions | pattern mirrored in the GR transcriptional activation assay | – |
| CC#C[C@]1(O)CC[C@H]2[C@@H]3CCC4=CC(=O)CCC4=C3[C@@H](c3ccc(N(C)C)cc3)C[C@@]21C [RU486] | – | pattern mirrored in the GR transcriptional activation assay | – |
| COC1=C2C[C@@H](C)C[C@H](OC)[C@H](O)[C@@H](C)/C=C(\C)[C@H](OC(N)=O)[C@@H](OC)/C=C\C=C(/C)C(=O)NC(=CC1=O)C2=O [geldanamycin] | – | – | promoted GR degradation by the proteosome |
